Experimental data taken from article PMC8259991, “Transgenerational inheritance of centromere identity requires the CENP-A N-terminal tail in the C. elegans maternal germ line” (PLoS Biology, 2021).
No constants are given. Whether binding was seen depends on the method and setting. For some assays here: Binding can be weak; no strength is given. Tags and fused reporters may be left off the sequences shown.

Assays:
[1] = target: CENP-A histone fold domain (HFD), yeast two-hybrid DNA-binding domain fusion (C. elegans); assay: two-hybrid; GAL4-based system, yeast strain MAV203; KNL-2 cDNA fragments in pDEST22 (activation domain), CENP-A cDNA fragments in pDEST32 (DNA binding domain); growth on SD-LTH with 5 mM 3AT
[2] = target: CENP-A N-terminal tail, yeast two-hybrid DNA-binding domain fusion (C. elegans); assay: as above

Binder	binding [1]	binding [2]
full-length KNL-2, yeast two-hybrid activation domain fusion (protein, UniProt O44548 1-877) MGDTEIVPLRVQNVLDSEIIRLNLWSMKFNATSFKLEGFVRNEEGTMMQKVCSEFICRRFTSTLLFDVSGRFFDLVGQIDREYQQKMGMPSRIIDEFSNGIPENWADLIYSCMSANQRSALRPIQQAPKEPIRTRTEPIVTLADETELTGGCQKNSENEKERNRREREEQQTKERERRLEEEKQRRDAEAEAERRRKEEEELEEANYTLRAPKSQNGEPITPIRFTRGHDNGGAKKVFIFEQTPVRKQGPIASSTPQQKQRLADGANNQIPPTQKSQDSVQAVQPPPPRPAARNAQFASDADLFAVPKAPPSKSVRNLAASNVDIFADVDSVLDTFHFESTPGRVRKPGRRNVSSPSPEPRHRSSSRDGYEQSRYSQRYEHDNSRWSRHNATYRRHEDESRMSRKRSIVRDDFEYSRRHDDGARRRDYYDADIQGDSKRYRGRDASSSSGRSVRFEEEHRRHGDEYRDPRGPRDYNDYGRRRNHANSRSGEDEEKLNAIVRREKELRNRLQKSQKASSSSYRHRSNSSDAEESLNEWDIENQELLDNSMMFGDGIPKRSNARKDKFVKKQATRSKPANSTKSPAQARKKKRASLEDNRDLNDSIACNRPRRSCVTPVAKKITWRKQDLDRLKRVIALKKPSASDADWTEVLRLLAKEGVVEPEVVRQIAITRLKWVEPEQNEEVLKQVEEVEQKRRRGAVARVKENVKMHEELREGGNHRAEDLQSGVESMEDYQPEDVAADQSLLALRTPIVTKKRGGTRASIMPKPVEDSPMSRGNNSTFNSPRLEQTKAKDIETNFKYVQHLSMMQARPSSRLKKSSSMNNSTYRGNKNTSISLEKGTQKALKIINRGTTIHEDDENEDNDDDDDMREEDTSIY	no binding	binds
KNL-2 central region (aa 269-470), yeast two-hybrid activation domain fusion (domain or fragment, UniProt O44548 269-470) QIPPTQKSQDSVQAVQPPPPRPAARNAQFASDADLFAVPKAPPSKSVRNLAASNVDIFADVDSVLDTFHFESTPGRVRKPGRRNVSSPSPEPRHRSSSRDGYEQSRYSQRYEHDNSRWSRHNATYRRHEDESRMSRKRSIVRDDFEYSRRHDDGARRRDYYDADIQGDSKRYRGRDASSSSGRSVRFEEEHRRHGDEYRDPR	–	binds
KNL-2 N-terminal region (aa 1-268), yeast two-hybrid activation domain fusion (domain or fragment, UniProt O44548 1-268) MGDTEIVPLRVQNVLDSEIIRLNLWSMKFNATSFKLEGFVRNEEGTMMQKVCSEFICRRFTSTLLFDVSGRFFDLVGQIDREYQQKMGMPSRIIDEFSNGIPENWADLIYSCMSANQRSALRPIQQAPKEPIRTRTEPIVTLADETELTGGCQKNSENEKERNRREREEQQTKERERRLEEEKQRRDAEAEAERRRKEEEELEEANYTLRAPKSQNGEPITPIRFTRGHDNGGAKKVFIFEQTPVRKQGPIASSTPQQKQRLADGANN	–	no binding
KNL-2 C-terminal region (aa 471-877), yeast two-hybrid activation domain fusion (domain or fragment, UniProt O44548 471-877) GPRDYNDYGRRRNHANSRSGEDEEKLNAIVRREKELRNRLQKSQKASSSSYRHRSNSSDAEESLNEWDIENQELLDNSMMFGDGIPKRSNARKDKFVKKQATRSKPANSTKSPAQARKKKRASLEDNRDLNDSIACNRPRRSCVTPVAKKITWRKQDLDRLKRVIALKKPSASDADWTEVLRLLAKEGVVEPEVVRQIAITRLKWVEPEQNEEVLKQVEEVEQKRRRGAVARVKENVKMHEELREGGNHRAEDLQSGVESMEDYQPEDVAADQSLLALRTPIVTKKRGGTRASIMPKPVEDSPMSRGNNSTFNSPRLEQTKAKDIETNFKYVQHLSMMQARPSSRLKKSSSMNNSTYRGNKNTSISLEKGTQKALKIINRGTTIHEDDENEDNDDDDDMREEDTSIY	–	no binding
